Values of other authors in US20140127179A1, “Natural Killer Cell Formulations” (SCIENTIFIC FORMULATIONS, LLC, priority 2012, published 2014).
Some entries share one result that the patent states for a list of compounds.

System: lymphokine-activated killer (LAK) cell
Details: PPS, MPS and LEN, the three combined, in vitro

Lentinan
enhancement of LAK activity: 42%-56.9%
